Data on 3 molecules can be found in publication PMC1523230, “Structural Organization of the 19S Proteasome Lid: Insights from MS of Intact Complexes” (PLoS Biology, 2006).

T1: Rpn11^H12 (S. cerevisiae), P43588
T1 chain: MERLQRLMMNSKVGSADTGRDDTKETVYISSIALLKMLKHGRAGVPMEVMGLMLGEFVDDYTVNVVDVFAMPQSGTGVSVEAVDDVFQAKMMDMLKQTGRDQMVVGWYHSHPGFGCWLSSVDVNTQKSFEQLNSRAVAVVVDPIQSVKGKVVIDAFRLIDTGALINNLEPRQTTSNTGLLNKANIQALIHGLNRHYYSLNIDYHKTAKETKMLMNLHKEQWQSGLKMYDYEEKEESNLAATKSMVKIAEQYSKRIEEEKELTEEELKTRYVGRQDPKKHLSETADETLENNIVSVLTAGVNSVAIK

B1: Rpn6, Q12377 1-434 (protein)
chain: MSLPGSKLEEARRLVNEKQYNEAEQVYLSLLDKDSSQSSAAAGASVDDKRRNEQETSILELGQLYVTMGAKDKLREFIPHSTEYMMQFAKSKTVKVLKTLIEKFEQVPDSLDDQIFVCEKSIEFAKREKRVFLKHSLSIKLATLHYQKKQYKDSLALINDLLREFKKLDDKPSLVDVHLLESKVYHKLRNLAKSKASLTAARTAANSIYCPTQTVAELDLMSGILHCEDKDYKTAFSYFFESFESYHNLTTHNSYEKACQVLKYMLLSKIMLNLIDDVKNILNAKYTKETYQSRGIDAMKAVAEAYNNRSLLDFNTALKQYEKELMGDELTRSHFNALYDTLLESNLCKIIEPFECVEISHISKIIGLDTQQVEGKLSQMILDKIFYGVLDQGNGWLYVYETPNQDATYDSALELVGQLNKVVDQLFEKASVLY
B2: Rpn12, P32496 1-274 (protein)
chain: MPSLAELTKSLSIAFENGDYAACEKLLPPIKIELIKNNLLIPDLSIQNDIYLNDLMITKRILEVGALASIQTFNFDSFENYFNQLKPYYFSNNHKLSESDKKSKLISLYLLNLLSQNNTTKFHSELQYLDKHIKNLEDDSLLSYPIKLDRWLMEGSYQKAWDLLQSGSQNISEFDSFTDILKSAIRDEIAKNTELSYDFLPLSNIKALLFFNNEKETEKFALERNWPIVNSKVYFNNQSKEKADYEDEMMHEEDQKTNIIEKAMDYAISIENIV
B3: Rpn9, Q04062 1-393 (protein)
chain: MFNNHEIDTILSTLRMEADPSLHPLFEQFEKFYEEKLWFQLSESLTKFFDDAKSTPLRLRLYDNFVSKFYDKINQLSVVKYLLASLKDSKDFDESLKYLDDLKAQFQELDSKKQRNNGSKDHGDGILLIDSEIARTYLLKNDLVKARDLLDDLEKTLDKKDSIPLRITNSFYSTNSQYFKFKNDFNSFYYTSLLYLSTLEPSTSITLAERQQLAYDLSISALLGDKIYNFGELLHHPIMETIVNDSNYDWLFQLLNALTVGDFDKFDSLIKVQISKIPILAQHESFLRQKICLMTLIETVFVKNIRMLSFEDISKATHLPKDNVEHLVMRAISLGLLKGSIDQVNELVTISWVQPRIISGDQITKMKDRLVEWNDQVEKLGKKMEARGQSIWV

These are yes or no findings as the source states them, for the method shown. Some binding calls cover weakened binding; strength is not graded here.

This experiment concerns the target T1, Rpn11^H12 (S. cerevisiae), P43588. The experiment is described as follows: native MS; intact endogenous 19S lid purified through Rpn11^H12, buffer exchanged into 1 M ammonium acetate, nano-electrospray on a high-mass Q-TOF; MS/MS of the 47+ charge state at 100 and 120 V; both purified. The settings on record: remark: other sources report otherwise.
For B1, the binding result is reported as “binds”. As for B2, the entry is “binds”. With B3, the binding result is reported as “binds”.
